Changes are numbered by the printed parent chain. Names and notes keep the numbering of the source. These are yes or no findings as the source states them, for the method shown. Some binding calls cover weakened binding; strength is not graded here.

By UniProt entry, the sequences of proteins in these tests, tags left out.
UniProt Q10428: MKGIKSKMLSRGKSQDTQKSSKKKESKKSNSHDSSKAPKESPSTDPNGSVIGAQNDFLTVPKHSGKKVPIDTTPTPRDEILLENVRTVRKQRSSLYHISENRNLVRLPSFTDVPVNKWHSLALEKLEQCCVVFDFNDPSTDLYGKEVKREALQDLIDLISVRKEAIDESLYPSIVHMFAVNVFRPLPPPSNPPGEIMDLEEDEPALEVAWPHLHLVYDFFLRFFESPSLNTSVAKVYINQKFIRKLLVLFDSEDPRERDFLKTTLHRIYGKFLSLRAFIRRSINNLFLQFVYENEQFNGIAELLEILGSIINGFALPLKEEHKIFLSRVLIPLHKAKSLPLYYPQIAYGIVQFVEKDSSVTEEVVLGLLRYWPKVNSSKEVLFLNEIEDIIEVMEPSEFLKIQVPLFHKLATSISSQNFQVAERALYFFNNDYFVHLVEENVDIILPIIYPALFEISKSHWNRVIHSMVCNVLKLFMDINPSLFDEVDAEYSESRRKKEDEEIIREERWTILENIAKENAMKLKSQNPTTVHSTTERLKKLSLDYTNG

For three molecules, binding results are on record in doi:10.1101/2025.09.19.677360.

The labels stand for the following.
B1: Rec8-2E (S449E, S450E) (protein, UniProt P36626 1-561)
chain: MFYNQDVLTKEKGGMGVIWLAATLGSKHSLRKLHKKDIMSVDIDEACDFVAFSPEPLALRLSSNLMIGVTRVWAHQYSFFHSQVSTLHLRVRKELDHFTSKPFKNIDIQNEQTNPKQLLLAEDPAFIPEVSLYDAFNLPSVDLHVDMSSFTQPKENPNISVLETLPDSTSYLINTSQNYSLRNNVSSFVYEDSRAFSTEEPLDFEFDENGDIQELTKGTINSDPSLQAASQHSNLGSVQREYNSEEQESRIHMFEIDEDVLPLPVPLQSVMDSEHNENEPRALKRRKVQKLLEPDENIELSTRTLSQWRKNYVERMIALEATKYVRRRGASSAKKKELNKFFDWESFHPLLKPWIEKLKPSNNTPSEIDDVLRNIDTSEVEVGRDVQGELGLNIPWNTSSRSNSAINSKSHSQTGSEHSTPLLDTKYRKRLPHSPSMPSRVEFLPALEEEQFHETLNSELSLQLSDDFVLYKNTQEENAHLMLSMEKECANFYEYAKTAIYENNGRITFSSLLPNDLKRPVVAQAFSHLLSLATKSAFLVKQDKPYSEISVSLNLKSTDAI
B2: Rec8-WT (protein, UniProt P36626 1-561)
chain: B1 chain with E449S, E450S
B3: Rec8-2A (S449A, S450A) (protein, UniProt P36626 1-561)
chain: B1 chain with E449A, E450A

This experiment addresses Par1, the PP2A subunit which binds Sgo1 (S. pombe) (UniProt Q10428). Kind of experiment: two-hybrid.
Consider B1, for which the binding entry is given as “binds”.

B2: the binding entry is listed as “no binding”.

On to B3, for which the binding result is reported as “no binding”.
